# In the supplement of paper PMC11438910:
# The other results are listed elsewhere or left out. The signal is at background level for most entries.
# B1: 4-99.3 (protein)
# chain 1: QVQLQESGPGLVKPSETLSLTCAVSGYSISSGYYWGWIRQPPGKGLEYIGYISGSWGKSYYKPSLKSRVTISKDTSKNQFSLTLSSVTAADTAVYYCARRLEYVGFDVWGPGVLVTVSS
# chain 2: QAAPTQPPSVSGSPGQSVTISCTGTSSDIGYYNAVSWYQQHPGKAPKLMIYEVSKRPSGVSDRFSGSKSGNTASLTISGLQAEDEADYYCSSYAGSNTYIFGSGTRLTVL
# Assays:
# Assay in all cases: fluorescence intensity of antibody binding to polysaccharide-coupled beads; higher = stronger binding
# [1] = molecular target: pneumococcal polysaccharide Pn28A
# [2] = molecular target: pneumococcal polysaccharide Pn28F
# [3] = molecular target: pneumococcal polysaccharide Pn29
# [4] = molecular target: pneumococcal polysaccharide Pn3
# [5] = molecular target: pneumococcal polysaccharide Pn31
# [6] = molecular target: pneumococcal polysaccharide Pn32A
# [7] = molecular target: pneumococcal polysaccharide Pn32F
# [8] = molecular target: pneumococcal polysaccharide Pn33A
# [9] = molecular target: pneumococcal polysaccharide Pn33B
# [10] = molecular target: pneumococcal polysaccharide Pn33C
# [11] = molecular target: pneumococcal polysaccharide Pn33D
# [12] = molecular target: pneumococcal polysaccharide Pn33F
# [13] = molecular target: pneumococcal polysaccharide Pn34
# [14] = molecular target: pneumococcal polysaccharide Pn35A
# [15] = molecular target: pneumococcal polysaccharide Pn35B
# [16] = molecular target: pneumococcal polysaccharide Pn35C
# [17] = molecular target: pneumococcal polysaccharide Pn35F
# [18] = molecular target: pneumococcal polysaccharide Pn36
# [19] = molecular target: pneumococcal polysaccharide Pn37
# [20] = molecular target: pneumococcal polysaccharide Pn38
# [21] = molecular target: pneumococcal polysaccharide Pn39
# [22] = molecular target: pneumococcal polysaccharide Pn4
# [23] = molecular target: pneumococcal polysaccharide Pn40
# [24] = molecular target: pneumococcal polysaccharide Pn41A
# [25] = antibody concentration 2337.65 ng/mL
# [26] = antibody concentration 12500 ng/mL
# [27] = antibody concentration 0.1 ng/mL
# [28] = antibody concentration 0.534724 ng/mL
# [29] = antibody concentration 2.8593 ng/mL
# [30] = antibody concentration 15.2894 ng/mL
# [31] = antibody concentration 81.7561 ng/mL
# [32] = antibody concentration 437.17 ng/mL
binder,measurement,setting,value
B1,fluorescence intensity,[1]; [25],29.2 MFI
same,fluorescence intensity,[1]; [26],47.5 MFI
same,fluorescence intensity,[2]; [27],26.2 MFI
same,fluorescence intensity,[2]; [28],29 MFI
same,fluorescence intensity,[2]; [29],28 MFI
same,fluorescence intensity,[2]; [30],27 MFI
same,fluorescence intensity,[2]; [31],29 MFI
same,fluorescence intensity,[2]; [32],32 MFI
same,fluorescence intensity,[2]; [25],37.5 MFI
same,fluorescence intensity,[2]; [26],142 MFI
same,fluorescence intensity,[3]; [27],15 MFI
same,fluorescence intensity,[3]; [28],14.5 MFI
same,fluorescence intensity,[3]; [29],15 MFI
same,fluorescence intensity,[3]; [30],15.5 MFI
same,fluorescence intensity,[3]; [31],17 MFI
same,fluorescence intensity,[3]; [32],19 MFI
same,fluorescence intensity,[3]; [25],30.2 MFI
same,fluorescence intensity,[3]; [26],190 MFI
same,fluorescence intensity,[4]; [27],14.5 MFI
same,fluorescence intensity,[4]; [28],23.5 MFI
same,fluorescence intensity,[4]; [29],67 MFI
same,fluorescence intensity,[4]; [30],196 MFI
same,fluorescence intensity,[4]; [31],1010 MFI
same,fluorescence intensity,[4]; [32],4680 MFI
same,fluorescence intensity,[4]; [25],8880 MFI
same,fluorescence intensity,[4]; [26],8930 MFI
same,fluorescence intensity,[5]; [27],12.5 MFI
same,fluorescence intensity,[5]; [28],14.5 MFI
same,fluorescence intensity,[5]; [29],13 MFI
same,fluorescence intensity,[5]; [30],14.5 MFI
same,fluorescence intensity,[5]; [31],13 MFI
same,fluorescence intensity,[5]; [32],16.5 MFI
same,fluorescence intensity,[5]; [25],29 MFI
same,fluorescence intensity,[5]; [26],249 MFI
same,fluorescence intensity,[6]; [27],16 MFI
same,fluorescence intensity,[6]; [28],16 MFI
same,fluorescence intensity,[6]; [29],16.5 MFI
same,fluorescence intensity,[6]; [30],16 MFI
same,fluorescence intensity,[6]; [31],17.5 MFI
same,fluorescence intensity,[6]; [32],20.5 MFI
same,fluorescence intensity,[6]; [25],23.8 MFI
same,fluorescence intensity,[6]; [26],73.5 MFI
same,fluorescence intensity,[7]; [27],26.5 MFI
same,fluorescence intensity,[7]; [28],27 MFI
same,fluorescence intensity,[7]; [29],28 MFI
same,fluorescence intensity,[7]; [30],25.8 MFI
same,fluorescence intensity,[7]; [31],28.5 MFI
same,fluorescence intensity,[7]; [32],35.5 MFI
same,fluorescence intensity,[7]; [25],40 MFI
same,fluorescence intensity,[7]; [26],91.5 MFI
same,fluorescence intensity,[8]; [27],18.5 MFI
same,fluorescence intensity,[8]; [28],16.5 MFI
same,fluorescence intensity,[8]; [29],18 MFI
same,fluorescence intensity,[8]; [30],16.5 MFI
same,fluorescence intensity,[8]; [31],17.5 MFI
same,fluorescence intensity,[8]; [32],25.5 MFI
same,fluorescence intensity,[8]; [25],127 MFI
same,fluorescence intensity,[8]; [26],982 MFI
same,fluorescence intensity,[9]; [27],17.5 MFI
same,fluorescence intensity,[9]; [28],17 MFI
same,fluorescence intensity,[9]; [29],17 MFI
same,fluorescence intensity,[9]; [30],18 MFI
same,fluorescence intensity,[9]; [31],16.8 MFI
same,fluorescence intensity,[9]; [32],18 MFI
same,fluorescence intensity,[9]; [25],19.5 MFI
same,fluorescence intensity,[9]; [26],31 MFI
same,fluorescence intensity,[10]; [27],19.5 MFI
same,fluorescence intensity,[10]; [28],17.2 MFI
same,fluorescence intensity,[10]; [29],18.5 MFI
same,fluorescence intensity,[10]; [30],19.5 MFI
same,fluorescence intensity,[10]; [31],17.5 MFI
same,fluorescence intensity,[10]; [32],19.5 MFI
same,fluorescence intensity,[10]; [25],30 MFI
same,fluorescence intensity,[10]; [26],114 MFI
same,fluorescence intensity,[11]; [27],17.5 MFI
same,fluorescence intensity,[11]; [28],14.5 MFI
same,fluorescence intensity,[11]; [29],14 MFI
same,fluorescence intensity,[11]; [30],15 MFI
same,fluorescence intensity,[11]; [31],15.5 MFI
same,fluorescence intensity,[11]; [32],16.5 MFI
same,fluorescence intensity,[11]; [25],20 MFI
same,fluorescence intensity,[11]; [26],44.2 MFI
same,fluorescence intensity,[12]; [27],12.5 MFI
same,fluorescence intensity,[12]; [28],13.5 MFI
same,fluorescence intensity,[12]; [29],12 MFI
same,fluorescence intensity,[12]; [30],12 MFI
same,fluorescence intensity,[12]; [31],14.5 MFI
same,fluorescence intensity,[12]; [32],16 MFI
same,fluorescence intensity,[12]; [25],41.5 MFI
same,fluorescence intensity,[12]; [26],355 MFI
same,fluorescence intensity,[13]; [27],12.8 MFI
same,fluorescence intensity,[13]; [28],13 MFI
same,fluorescence intensity,[13]; [29],15 MFI
same,fluorescence intensity,[13]; [30],14.5 MFI
same,fluorescence intensity,[13]; [31],13.5 MFI
same,fluorescence intensity,[13]; [32],14 MFI
same,fluorescence intensity,[13]; [25],15 MFI
same,fluorescence intensity,[13]; [26],28.5 MFI
same,fluorescence intensity,[14]; [27],17 MFI
same,fluorescence intensity,[14]; [28],17 MFI
same,fluorescence intensity,[14]; [29],16.5 MFI
same,fluorescence intensity,[14]; [30],16 MFI
same,fluorescence intensity,[14]; [31],15.8 MFI
same,fluorescence intensity,[14]; [32],17 MFI
same,fluorescence intensity,[14]; [25],35.5 MFI
same,fluorescence intensity,[14]; [26],216 MFI
same,fluorescence intensity,[15]; [27],20.8 MFI
same,fluorescence intensity,[15]; [28],18.2 MFI
same,fluorescence intensity,[15]; [29],18.2 MFI
same,fluorescence intensity,[15]; [30],16 MFI
same,fluorescence intensity,[15]; [31],17.5 MFI
same,fluorescence intensity,[15]; [32],17.5 MFI
same,fluorescence intensity,[15]; [25],31.5 MFI
same,fluorescence intensity,[15]; [26],142 MFI
same,fluorescence intensity,[16]; [27],20 MFI
same,fluorescence intensity,[16]; [28],18.5 MFI
same,fluorescence intensity,[16]; [29],19.5 MFI
same,fluorescence intensity,[16]; [30],19.5 MFI
same,fluorescence intensity,[16]; [31],20 MFI
same,fluorescence intensity,[16]; [32],20 MFI
same,fluorescence intensity,[16]; [25],22.5 MFI
same,fluorescence intensity,[16]; [26],34 MFI
same,fluorescence intensity,[17]; [27],18.5 MFI
same,fluorescence intensity,[17]; [28],19.8 MFI
same,fluorescence intensity,[17]; [29],20 MFI
same,fluorescence intensity,[17]; [30],16.5 MFI
same,fluorescence intensity,[17]; [31],18.5 MFI
same,fluorescence intensity,[17]; [32],17.5 MFI
same,fluorescence intensity,[17]; [25],19.8 MFI
same,fluorescence intensity,[17]; [26],32 MFI
same,fluorescence intensity,[18]; [27],14.5 MFI
same,fluorescence intensity,[18]; [28],14.5 MFI
same,fluorescence intensity,[18]; [29],14.2 MFI
same,fluorescence intensity,[18]; [30],14.5 MFI
same,fluorescence intensity,[18]; [31],15 MFI
same,fluorescence intensity,[18]; [32],15.5 MFI
same,fluorescence intensity,[18]; [25],26.5 MFI
same,fluorescence intensity,[18]; [26],182 MFI
same,fluorescence intensity,[19]; [27],24 MFI
same,fluorescence intensity,[19]; [28],24 MFI
same,fluorescence intensity,[19]; [29],25.5 MFI
same,fluorescence intensity,[19]; [30],24.5 MFI
same,fluorescence intensity,[19]; [31],26 MFI
same,fluorescence intensity,[19]; [32],32.5 MFI
same,fluorescence intensity,[19]; [25],75.5 MFI
same,fluorescence intensity,[19]; [26],779 MFI
same,fluorescence intensity,[20]; [27],26 MFI
same,fluorescence intensity,[20]; [28],25 MFI
same,fluorescence intensity,[20]; [29],25 MFI
same,fluorescence intensity,[20]; [30],24.5 MFI
same,fluorescence intensity,[20]; [31],26.5 MFI
same,fluorescence intensity,[20]; [32],26.5 MFI
same,fluorescence intensity,[20]; [25],33 MFI
same,fluorescence intensity,[20]; [26],64.5 MFI
same,fluorescence intensity,[21]; [27],20 MFI
same,fluorescence intensity,[21]; [28],17.5 MFI
same,fluorescence intensity,[21]; [29],17.5 MFI
same,fluorescence intensity,[21]; [30],17.5 MFI
same,fluorescence intensity,[21]; [31],17.5 MFI
same,fluorescence intensity,[21]; [32],20 MFI
same,fluorescence intensity,[21]; [25],30 MFI
same,fluorescence intensity,[21]; [26],140 MFI
same,fluorescence intensity,[22]; [27],18 MFI
same,fluorescence intensity,[22]; [28],17.5 MFI
same,fluorescence intensity,[22]; [29],17.5 MFI
same,fluorescence intensity,[22]; [30],16.5 MFI
same,fluorescence intensity,[22]; [31],19 MFI
same,fluorescence intensity,[22]; [32],23 MFI
same,fluorescence intensity,[22]; [25],30.5 MFI
same,fluorescence intensity,[22]; [26],69.8 MFI
same,fluorescence intensity,[23]; [27],16.5 MFI
same,fluorescence intensity,[23]; [28],15.5 MFI
same,fluorescence intensity,[23]; [29],16 MFI
same,fluorescence intensity,[23]; [30],14.8 MFI
same,fluorescence intensity,[23]; [31],17 MFI
same,fluorescence intensity,[23]; [32],17.5 MFI
same,fluorescence intensity,[23]; [25],30.8 MFI
same,fluorescence intensity,[23]; [26],221 MFI
same,fluorescence intensity,[24]; [27],22 MFI
same,fluorescence intensity,[24]; [28],21.5 MFI

# Reprinted at random: seven entries already listed, in no set order.
binder,measurement,setting,value
B1,fluorescence intensity,[10]; [28],17.2 MFI
same,fluorescence intensity,[8]; [30],16.5 MFI
same,fluorescence intensity,[20]; [26],64.5 MFI
same,fluorescence intensity,[4]; [29],67 MFI
same,fluorescence intensity,[22]; [29],17.5 MFI
same,fluorescence intensity,[23]; [29],16 MFI
same,fluorescence intensity,[15]; [27],20.8 MFI

# Laid out differently: results already given.
binder	measurement	setting	value
B1	fluorescence intensity	[19]; [30]	24.5 MFI
same	fluorescence intensity	[19]; [31]	26 MFI
